Test results reported in patent US10842152B2, “Isothiazolo-based bicycles, processes for their preparation and their use as herbicides and/or plant growth regulators” (Bayer CropScience Aktiengesellschaft, priority 2017, dated 2020).
Read-outs that look alike come from different tables or passages of the source. Some results were stated once for a whole list of compounds, not compound by compound.

Assays:
Phytophthora infestans = assay type: in vivo; settings: preventive, tomato, evaluated 5 days after inoculation
Septoria tritici = experiment: In vivo preventive test on Septoria tritici (leaf spot on wheat); settings: evaluated 24 days after inoculation
Puccinia recondita = experiment: In vivo preventive test on Puccinia recondita (brown rust on wheat); settings: evaluated 11 days after inoculation
Botrytis cinerea = experiment: In vivo preventive test on Botrytis cinerea (grey mould); settings: 500 ppm of active ingredient, gherkin, evaluated 4 to 5 days after inoculation
Sphaerotheca fuliginea = experiment: In vivo preventive test on Sphaerotheca fuliginea (powdery mildew on cucurbits); settings: 100 ppm of active ingredient, gherkin, evaluated 15 days after inoculation

SMILES	efficacy (Phytophthora infestans; 500 ppm of active ingredient)	further results
Nc1nsc2c(=O)n(CC3CCCCC3Cl)cc(Cl)c12 (racemic) [Example I-155]	at least 70%	efficacy (Septoria tritici; 100 ppm of active ingredient): at least 70%; efficacy (Puccinia recondita; 500 ppm of active ingredient): at least 70%; efficacy (Botrytis cinerea): at least 70%
O=C(Nc1nsc2c(=O)n(CC3CCCCC3Cl)cc(Cl)c12)C(F)F (racemic) [Example I-159]	at least 70%	efficacy (Puccinia recondita; 500 ppm of active ingredient): at least 70%
Nc1nsc2c(=O)[nH]c(CO)c(-c3ccccc3)c12 [Example I-009]	at least 70%	
CC(C)(C)OC(=O)Nc1nsc2c1CC(COC(=O)OC(C)(C)C)NC2=O (centres unmarked) [Example I-016]	at least 70%	efficacy (Septoria tritici; 500 ppm of active ingredient): at least 70%
COC(=O)c1cc2c(N)nsc2c(=O)[nH]1 [Example I-017]	at least 70%	efficacy (Septoria tritici; 500 ppm of active ingredient): at least 70%
Cc1cc2c(N)nsc2c(=O)n1CC1CCCCC1 [Example I-018]	at least 70%	
CC(C)c1cc2c(N)nsc2c(=O)n1CC1CCCCC1 [Example I-023, 3-amino-6-(cyclohexylmethyl)-5-isopropyl-isothiazolo[5,4-c]pyridin-7-one]	at least 70%	
CCC(=O)Nc1nsc2c(=O)n(CC3CCCCC3)c(C3CC3)cc12 [Example I-025]	at least 70%	efficacy (Septoria tritici; 100 ppm of active ingredient): at least 70%
CCC(=O)Nc1nsc2c(=O)n(CC3CCCCC3)c(CC)cc12 [Example I-029]	at least 70%	efficacy (Septoria tritici; 500 ppm of active ingredient): at least 70%
CCCc1cc2c(NC(=O)C(F)(F)C(F)(F)F)nsc2c(=O)n1CC1CCCCC1 [Example I-032]	at least 70%	efficacy (Septoria tritici; 500 ppm of active ingredient): at least 70%; efficacy (Botrytis cinerea): at least 70%
CC(=O)OCc1cc2c(NC(=O)C(F)(F)C(F)(F)F)nsc2c(=O)n1CC1CCCCC1 [Example I-035]	at least 70%	efficacy (Septoria tritici; 500 ppm of active ingredient): at least 70%
Nc1nsc2c(=O)n(CC3CCCCC3)c(CO)cc12 [Example I-036]	at least 70%	
Nc1nsc2c(=O)n(CC3CCCCC3)c(C3CC3)cc12 [Example I-037]	at least 70%	
Nc1nsc2c(=O)n(CC3CCCCC3)c(COC3CCCCO3)cc12 (centres unmarked) [Example I-038]	at least 70%	
CCOC(OCC)c1cc2c(N)nsc2c(=O)n1CC1CCCCC1 [Example I-041]	at least 70%	
CCC(=O)N(C(=O)CC)c1nsc2c(=O)n(CC3CCCCC3)c(COC3CCCCO3)cc12 (centres unmarked) [Example I-042]	at least 70%	efficacy (Septoria tritici; 100 ppm of active ingredient): at least 70%
O=C(Nc1nsc2c(=O)n(CC3CCCCC3)c(COC3CCCCO3)cc12)C(F)(F)C(F)(F)F (centres unmarked) [Example I-043]	at least 70%	
O=C(Nc1nsc2c(=O)n(CC3CCCCC3)c(CO)cc12)C(F)(F)C(F)(F)F [Example I-047]	at least 70%	
CCC(=O)N(C(=O)CC)c1nsc2c(=O)n(CC3CCCCC3)c(CO)cc12 [Example I-049]	at least 70%	
CC(C)Cc1cc2c(N)nsc2c(=O)n1CC1CCCCC1 [Example I-050]	at least 70%	
CC(C)Cc1cc2c(NC(=O)C(F)(F)F)nsc2c(=O)n1CC1CCCCC1 [Example I-056]	at least 70%	efficacy (Botrytis cinerea): at least 70%
CC(C)(C)OC(=O)NCc1cc2c(N)nsc2c(=O)n1CC1CCCCC1 [Example I-063]	at least 70%	
C=Cc1cc2c(N(C(=O)CC)C(=O)CC)nsc2c(=O)n1CC1CCCCC1 [Example I-067]	at least 70%	
CC(C)(C)OC(=O)N(C(=O)OC(C)(C)C)c1nsc2c(=O)n(CC3CCCCC3)cc(Cl)c12 [Example I-068]	at least 70%	
C[Si](C)(C)C#Cc1cn(CC2CCCCC2)c(=O)c2snc(N)c12 [Example I-069]	at least 70%	efficacy (Puccinia recondita; 500 ppm of active ingredient): at least 70%
C#Cc1cn(CC2CCCCC2)c(=O)c2snc(N)c12 [Example I-070]	at least 70%	efficacy (Septoria tritici; 500 ppm of active ingredient): at least 70%; efficacy (Puccinia recondita; 500 ppm of active ingredient): at least 70%
CC(O)c1cc2c(N)nsc2c(=O)n1CC1CCCCC1 (centres unmarked) [Example I-072]	at least 70%	efficacy (Septoria tritici; 100 ppm of active ingredient): at least 70%
O=C(Nc1nsc2c(=O)n(CC3CCCCC3)cc(Br)c12)C(F)(F)C(F)(F)F [Example I-077]		efficacy (Sphaerotheca fuliginea): at least 70%; efficacy (Phytophthora infestans; 100 ppm of active ingredient): at least 70%; efficacy (Septoria tritici; 100 ppm of active ingredient): at least 70%; efficacy (Puccinia recondita; 100 ppm of active ingredient): at least 70%
CCC(=O)Nc1nsc2c(=O)n(CC3CCCCC3)cc(Br)c12 [Example I-078]		efficacy (Septoria tritici; 100 ppm of active ingredient): at least 70%; efficacy (Puccinia recondita; 100 ppm of active ingredient): at least 70%
